Consider six molecules from article doi:10.1101/2025.08.27.672337.

Protein sequences, listed by entry. Tags and fused reporters are not part of them. Lines headed by an entry give the natural chain unless they say otherwise; changes in a name come on top. Chains listed by the source or under a name are the forms on record and can include a tag or linker. Residues count along the entry.
talin1 R7R8 (P26039, residues 1357-1659): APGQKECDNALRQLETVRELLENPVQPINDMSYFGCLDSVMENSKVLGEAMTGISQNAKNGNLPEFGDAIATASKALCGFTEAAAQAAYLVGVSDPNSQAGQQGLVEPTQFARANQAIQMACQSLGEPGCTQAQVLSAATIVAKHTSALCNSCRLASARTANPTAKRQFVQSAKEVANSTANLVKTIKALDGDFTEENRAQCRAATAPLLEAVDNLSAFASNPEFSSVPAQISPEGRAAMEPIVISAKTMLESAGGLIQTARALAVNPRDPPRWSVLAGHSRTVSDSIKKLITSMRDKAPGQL
talin1 R8 (P26039, residues 1461-1580): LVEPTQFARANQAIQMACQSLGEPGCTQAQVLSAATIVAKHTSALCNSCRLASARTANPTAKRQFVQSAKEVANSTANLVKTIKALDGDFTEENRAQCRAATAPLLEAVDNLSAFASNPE
talin1 R7 (P26039, form named): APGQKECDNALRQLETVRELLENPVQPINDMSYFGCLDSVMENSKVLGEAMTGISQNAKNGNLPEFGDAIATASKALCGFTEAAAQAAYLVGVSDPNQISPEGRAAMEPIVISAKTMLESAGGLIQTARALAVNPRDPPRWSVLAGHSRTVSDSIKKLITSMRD
PSD-95 PDZ2 domain (P78352, residues 155-249): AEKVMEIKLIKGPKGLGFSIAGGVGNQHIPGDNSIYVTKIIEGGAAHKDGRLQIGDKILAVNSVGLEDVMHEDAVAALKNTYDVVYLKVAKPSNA
PSD-95 PDZ3 domain (P78352, residues 302-402): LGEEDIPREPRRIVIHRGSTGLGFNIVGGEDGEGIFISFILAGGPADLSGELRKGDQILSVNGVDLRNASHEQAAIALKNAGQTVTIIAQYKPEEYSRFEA
UniProt P06493: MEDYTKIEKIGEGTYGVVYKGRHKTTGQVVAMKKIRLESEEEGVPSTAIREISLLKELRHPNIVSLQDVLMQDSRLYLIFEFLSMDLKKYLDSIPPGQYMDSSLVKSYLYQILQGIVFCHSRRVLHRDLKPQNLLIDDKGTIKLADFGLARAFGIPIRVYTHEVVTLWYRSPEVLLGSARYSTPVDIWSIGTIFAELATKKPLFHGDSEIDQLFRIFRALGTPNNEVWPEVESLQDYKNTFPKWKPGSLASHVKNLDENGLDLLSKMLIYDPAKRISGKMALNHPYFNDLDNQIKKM

Results are given in words; binding and its absence hold for the method and conditions named. Some results given as binding are weak or reduced against the parent protein; the word gives no strength.

The target in one assay is talin1 R7R8 (mouse) (UniProt P26039). Kind of assay: fluorescence polarisation. (In general: Polarisation of emitted light reports the rotation of a fluorescent probe.)
In assay [1] the target is T1, SHANK2 PDZ domain (mouse) (UniProt Q80Z38).
T1 sequence: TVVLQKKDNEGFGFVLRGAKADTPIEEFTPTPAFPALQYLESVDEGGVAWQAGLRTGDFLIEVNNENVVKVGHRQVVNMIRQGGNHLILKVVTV
In words: NMR titration.

Assay [2] addresses T2, SHANK3 PDZ domain (mouse) (UniProt Q4ACU6).
T2 sequence: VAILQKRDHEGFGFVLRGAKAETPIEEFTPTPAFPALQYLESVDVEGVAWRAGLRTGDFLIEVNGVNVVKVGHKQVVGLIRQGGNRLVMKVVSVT
In words: fluorescence polarisation.

Assay [3] addresses T1, SHANK2 PDZ domain (mouse). Kind of assay: fluorescence polarisation.
Assay [4] addresses PSD-95 PDZ3 domain (human) (UniProt P78352). Kind of assay: fluorescence polarisation.
Assay [5] deals with PSD-95 PDZ2 domain (human) (UniProt P78352). Kind of assay: fluorescence polarisation.
The next assay has as its target talin1 R7 (mouse) (UniProt P26039). In words: NMR titration.
Another assay concerns the target talin1 R8 (mouse) (UniProt P26039). Kind of assay: NMR titration.

Take “CDK1^206-223 peptide, dye-labelled for FP (from UniProt P06493 206-223)”: the binding entry with talin1 R7R8 (mouse) is on record as “binds”.
For the molecule CYNRTNRSRMPNLNDLKETAD (peptide, UniProt O76039-2 941-960) [CDKL5-1^941-960 L960D peptide, unlabelled], the binding result in assay [1] is listed as “no binding (tested: 1:3 molar ratio)”.
With CYNRTNRSRMPNLNDLKETAD (peptide, UniProt O76039-2 941-960, maleimide-fluorescein coupled to the non-native N-terminal cysteine) [CDKL5-1^941-960 L960D peptide, fluorescein-labelled], the binding entry in assay [2] and in assay [3] was “no binding” throughout.
As for CAQVNQAALLTYHENAALTGK (peptide, UniProt O76039-1 1011-1030, maleimide-fluorescein coupled to the non-native N-terminal cysteine) [CDKL5-2^1011-1030 peptide, fluorescein-labelled], the binding result in assay [4], in assay [2], in assay [3] and in assay [5] was “no binding” each time.
For the molecule CGESEIDQLFTIQKVLGPLPSEQ (peptide, UniProt O76039-2 213-234) [CDKL5^213-234 peptide (NMR)], in the assay with talin1 R7 (mouse), the binding result is “no binding (tested: 1:3 molar ratio)”.
With CGESEIDQAATIQKVLGPLPSEQ (peptide, UniProt O76039-2 213-234) [CDKL5^213-234 2A peptide (L220A, F221A)], in the assay with talin1 R8 (mouse), the binding entry is reported as “no binding (tested: 1:3 ratio)”.
